Measurements reported in PubChem BioAssay AID1259254 (NCATS, 2017).

- Test: 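Genome-wide screen for genes that prevent DNA re-replication in cancer cells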 (primary screen)
- Cell system: human HCT116 colorectal cancer cells
- Knock-down reagent: single siRNA against human genes
- Duration: 3 days
- Measurement: 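Imaged Hoechst DNA stain sorts each cell into a cycle phase by DNA amount; per plate, G2 fraction set to 0% for non-targeting and 100% for GMNN siRNA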
- Scale: G2 robust z-score: higher = more G2 cells, more excess DNA replication
- Active means: 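Active siRNAs have a G2 robust z of 5 or more median absolute deviations over the median, which in these data means about 38% or higher of GMNN control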
Here is a random part of about 59,000 reagents. Of all reagents, about 1,550 (2.6%) got an active call. 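G2 share is only a proxy for re-replication; each gene was hit by three separate siRNAs, and active genes were retested.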 Reagents against one gene are numbered here. Not all columns of the deposit are shown. No sequences are given here. Not given: the amount of reagent.

G2 robust z-score, by gene knocked down and reagent
SPATA6: #1 -0.916 inactive; #2 -0.161 inactive; #3 -0.708 inactive
SCGB1C1: #1 -0.625 inactive; #2 0.961 inactive; #3 2.79 inactive
ADK: #1 0.587 inactive; #2 -0.041 inactive; #3 -0.608 inactive
TRAPPC3: #1 -0.939 inactive; #2 1 inactive; #3 1.99 inactive
TSPAN1: #1 -1.22 inactive; #2 -0.0608 inactive; #3 -0.49 inactive
FKBP8: #1 2 inactive; #2 0.347 inactive; #3 -0.964 inactive
INHBE: #1 -0.185 inactive; #2 0.257 inactive; #3 2.92 inactive
GJA8: #1 -0.566 inactive; #2 0.14 inactive; #3 -0.102 inactive
CDKN2C: #1 1.56 inactive; #2 -0.455 inactive; #3 -1.16 inactive

Copied from the entries so far, 6 entries:
G2 robust z-score, by gene knocked down and reagent
TSPAN1: #2 -0.0608 inactive; #3 -0.49 inactive
FKBP8: #1 2 inactive; #2 0.347 inactive; #3 -0.964 inactive
INHBE: #1 -0.185 inactive

Additional records follow:
G2 robust z-score, by gene knocked down and reagent
BMAL1: #1 -0.924 inactive; #2 -1.16 inactive; #3 -0.951 inactive
ACTN4: #1 0.0545 inactive; #2 0.211 inactive; #3 -1.3 inactive
HIVEP1: #1 0.311 inactive; #2 -1 inactive; #3 0.242 inactive
PI16: #1 1.03 inactive; #2 -0.206 inactive; #3 0.457 inactive
TERF1: #1 4.79 inactive; #2 -0.0322 inactive; #3 2.75 inactive
MAGEB16: #1 -0.409 inactive; #2 -0.367 inactive; #3 1.01 inactive
ETFDH: #1 0.21 inactive; #2 -1.02 inactive; #3 -0.323 inactive
HERPUD2: #1 1.09 inactive; #2 2.31 inactive; #3 1.93 inactive
MBLAC2: #1 1.15 inactive; #2 1.12 inactive; #3 1.69 inactive
OR4K5: #1 0.815 inactive; #2 -0.553 inactive; #3 -0.736 inactive
PSMF1: #1 -0.422 inactive; #2 -0.118 inactive; #3 0.452 inactive
PNPLA8: #1 -0.294 inactive; #2 -0.528 inactive; #3 -0.379 inactive
HECA: #1 -0.368 inactive; #2 -0.0504 inactive; #3 -0.617 inactive
NR1I3: #1 6.97 active; #2 -1.25 inactive; #3 -0.781 inactive
